In PubChem BioAssay AID268 (DTP/NCI, 2004):
The list is a part of this screen's results and no random one: it gathers some chemical classes. Not every dose and run of a compound is shown. T/C: endpoint of the treated group in % of that of the vehicle group. Some entries show no survivor count and are marked so; the dose need not have been tolerated. Schedules are NCI's codes, taken here to give the interval after Q, in days (D) or hours (H), and the number of doses after X.

Tested on: CD2F1 mice, P1798 lymphosarcoma sc, tumor weight T/C
Assay: NCI In Vivo Anticancer Drug Screen. Data for tumor model P1798 Lymphosarcoma (subcutaneous) in CD2F1 (CDF1) mice
Details: T/C endpoint: mean tumor weight, schedule: Q01DX010 (ip), vehicle: saline, evaluation day not shown, higher T/C = larger tumour
Description: The antitumor activity of compounds was measured in mice bearing transplantable tumors. Survival or tumor size were measured and the results are expressed as the measurement made in the treated group (T) divided by the measurement made in the vehicle treated control group (C). The tumor model used in this assay is P1798 Lymphosarcoma (subcutaneous) in CD2F1 (CDF1) mice

Structure (SMILES): CN(CCCl)CCCl
- T/C (dose: 0.13 mg/kg/injection): 77 % of control [survivor count not shown]
- T/C (dose: 0.25 mg/kg/injection): 54 % of control [survivor count not shown]
- T/C (dose: 0.5 mg/kg/injection): 31 % of control [survivor count not shown]
- T/C (dose: 62.5 micrograms/kg/injection): 71 % of control [survivor count not shown]
- T/C (dose: 125.0 micrograms/kg/injection): 50 % of control [survivor count not shown]
- T/C (dose: 250.0 micrograms/kg/injection): 19 % of control [survivor count not shown]
- T/C (dose: 500.0 micrograms/kg/injection): 57 % of control [survivor count not shown]
